Our source for the binding values is article PMC5939050.

By UniProt entry, the sequences of proteins in these tests, tags left out. Residues count along the entry.
UniProt Q00609, residues 38-306: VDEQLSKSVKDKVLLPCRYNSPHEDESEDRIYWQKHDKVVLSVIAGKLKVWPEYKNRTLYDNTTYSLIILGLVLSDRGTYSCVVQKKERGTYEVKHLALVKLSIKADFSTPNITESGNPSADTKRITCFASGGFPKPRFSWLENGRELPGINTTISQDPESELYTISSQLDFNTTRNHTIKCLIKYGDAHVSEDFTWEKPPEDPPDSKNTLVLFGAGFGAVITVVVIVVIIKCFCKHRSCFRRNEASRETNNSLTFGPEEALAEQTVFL
UniProt P10747, residues 19-152: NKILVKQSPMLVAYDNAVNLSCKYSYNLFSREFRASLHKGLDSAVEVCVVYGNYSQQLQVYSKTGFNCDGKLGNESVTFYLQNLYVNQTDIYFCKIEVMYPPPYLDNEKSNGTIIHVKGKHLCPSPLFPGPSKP

These are yes or no findings as the source states them, for the method shown. Some binding calls cover weakened binding; strength is not graded here.

For the assay, the target named is B7-1 on J558 cells (UniProt Q00609). The assay is described as follows: flow cytometry on cells; J558-B7 cells with biotinylated CD28-Fc (20 μg/ml) in the presence of unlabeled CTLA-4-Fc (5 μg/ml) and graded anti-CTLA-4 mAbs or control IgG-Fc; only the binder purified. (In flow cytometry, cells or beads pass a laser one at a time.)

As for “CD28-Fc (from UniProt P10747 19-152) (Fc fusion)”, the binding entry is “binds”.
